Drawing on the supplement of paper PMC10849652, this text covers log2 fold change for four targets.

Sequences of proteins named here, by UniProt entry; tags and fusion partners are left off. A change or cut given only in a name is not applied to a line headed by its entry.
UniProt Q96IW7: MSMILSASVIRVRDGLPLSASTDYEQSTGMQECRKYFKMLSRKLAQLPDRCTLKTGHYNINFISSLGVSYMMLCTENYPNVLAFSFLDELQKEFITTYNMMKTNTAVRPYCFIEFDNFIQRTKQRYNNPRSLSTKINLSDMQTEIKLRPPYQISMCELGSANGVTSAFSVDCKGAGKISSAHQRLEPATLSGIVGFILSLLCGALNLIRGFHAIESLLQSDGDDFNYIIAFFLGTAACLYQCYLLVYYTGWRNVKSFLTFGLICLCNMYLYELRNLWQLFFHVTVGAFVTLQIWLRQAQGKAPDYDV
UniProt Q96NL6: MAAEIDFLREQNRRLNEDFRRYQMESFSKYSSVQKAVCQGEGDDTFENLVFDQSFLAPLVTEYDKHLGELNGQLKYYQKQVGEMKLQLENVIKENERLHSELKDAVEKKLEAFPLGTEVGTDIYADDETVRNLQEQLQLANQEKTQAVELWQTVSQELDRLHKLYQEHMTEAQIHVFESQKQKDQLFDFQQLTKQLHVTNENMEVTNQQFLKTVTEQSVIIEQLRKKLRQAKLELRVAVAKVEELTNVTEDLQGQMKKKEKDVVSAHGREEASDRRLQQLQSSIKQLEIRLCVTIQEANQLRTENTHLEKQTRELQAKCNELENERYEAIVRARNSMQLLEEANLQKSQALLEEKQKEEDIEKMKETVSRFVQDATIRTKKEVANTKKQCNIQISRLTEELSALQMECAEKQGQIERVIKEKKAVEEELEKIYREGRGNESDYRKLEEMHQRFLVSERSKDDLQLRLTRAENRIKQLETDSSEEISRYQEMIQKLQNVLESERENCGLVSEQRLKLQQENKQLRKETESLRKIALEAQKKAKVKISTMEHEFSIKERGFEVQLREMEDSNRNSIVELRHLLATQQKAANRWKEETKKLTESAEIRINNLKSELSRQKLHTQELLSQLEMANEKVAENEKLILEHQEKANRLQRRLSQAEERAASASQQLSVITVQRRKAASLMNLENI
UniProt O15127: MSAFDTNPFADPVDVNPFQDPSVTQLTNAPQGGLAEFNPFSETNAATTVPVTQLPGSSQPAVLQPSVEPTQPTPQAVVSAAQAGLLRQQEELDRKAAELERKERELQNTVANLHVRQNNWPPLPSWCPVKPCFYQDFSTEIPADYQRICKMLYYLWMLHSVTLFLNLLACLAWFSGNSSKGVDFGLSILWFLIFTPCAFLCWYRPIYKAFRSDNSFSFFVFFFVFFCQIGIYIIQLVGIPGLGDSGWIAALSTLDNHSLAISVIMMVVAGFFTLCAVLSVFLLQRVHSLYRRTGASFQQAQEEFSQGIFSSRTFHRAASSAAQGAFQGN
UniProt O00560: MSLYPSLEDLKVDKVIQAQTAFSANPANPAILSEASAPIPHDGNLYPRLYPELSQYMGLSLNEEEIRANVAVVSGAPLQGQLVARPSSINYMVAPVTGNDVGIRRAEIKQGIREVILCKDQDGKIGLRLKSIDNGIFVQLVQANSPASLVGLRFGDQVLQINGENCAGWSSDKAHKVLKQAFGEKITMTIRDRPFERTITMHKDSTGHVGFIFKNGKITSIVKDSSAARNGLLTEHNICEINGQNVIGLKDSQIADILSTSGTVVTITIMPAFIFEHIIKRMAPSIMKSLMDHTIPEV

The list shows a part of the results.

Experiment in all cases: log2 fold change, soluble protein after heating vs DMSO (PISA); higher = thermal stabilisation; K562 cells, 10 uM, 30 min; active = over 0.2 and 3.5 SD of the protein, either way, in both replicates (recomputed)
Compound in one test: CN1CCN(CCOc2cc(OC3CCOCC3)c3c(Nc4c(Cl)ccc5c4OCO5)ncnc3c2)CC1 [saracatinib]
Summed up: (§1)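 Quantification of soluble protein used TMTpro 16plex LC-MS/MS, with channel sums equalised. Samples were the supernatant after 21,000xg for 90 min of pooled aliquots from K562 cells (2×10^6 cells/mL) treated with 10 μM compound for 30 min, heated for 3 min over 48°C-58°C, and extracted in PBS with 0.5% NP-40 at 4°C. Values, from duplicates, describe thermal stability against control samples on a log2 fold-change scale.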

Compound in another test: CN1CC[C@H](c2c(O)cc(O)c3c(=O)cc(-c4ccccc4Cl)oc23)[C@H](O)C1 [alvocidib]
Summed up:
as §1

Compound in the next test: CN1CCc2c(c3ccccc3n2Cc2ccc(C(=O)NO)cc2)C1 [Tubastatin A]
Summed up: as §1

Compound in test [1]: CNC(=O)C1=CC=CC=C1NC2=NC(=NC=C2Cl)NC3=C(C=C(C=C3)N4CCOCC4)OC
The procedure, abridged: as §1

Compound in test [2]: CNc1nc(-c2ccc3c(N)n[nH]c3c2)cc(N2C[C@@H](C(=O)NC3CCCCC3)CC[C@H]2C)n1
The procedure, abridged:
as §1

Compound in test [3]: COC1=CC=C(C=C1)CN2C=CC3=C2C=C(C=C3)C(=O)NO
Summed up:
as §1

Compound in a further test: CO[C@H]1C[C@@H]2CC[C@@H](C)[C@@](O)(O2)C(=O)C(=O)N2CCCC[C@H]2C(=O)O[C@H]([C@H](C)C[C@@H]2CC[C@H](n3cnnn3)[C@H](OC)C2)CC(=O)[C@H](C)/C=C(\C)[C@@H](O)[C@@H](OC)C(=O)[C@H](C)C[C@H](C)/C=C/C=C/C=C/1C [zotarolimus]
The procedure, abridged: as §1

Compound in the next test: COc1cc(C(=O)O)ccc1NC(=O)[C@@H]1N[C@@H](CC(C)(C)C)[C@](C#N)(c2ccc(Cl)cc2F)[C@H]1c1cccc(Cl)c1F [idasanutlin]
The procedure, abridged: as §1

Compound in test [4]: COc1cc2nc(-c3cc(F)ccc3O)nc(N[C@@H]3CNC[C@H]3C(C)(C)O)c2cc1OC
Summed up:
as §1

Compound in a further test: CS(=O)(=O)CCNCc1ccc(-c2ccc3ncnc(Nc4ccc(OCc5cccc(F)c5)c(Cl)c4)c3c2)o1 [lapatinib]
Summed up:
as §1

Compound in the next test: CS(=O)(=O)N1CCN(Cc2cc3nc(-c4cccc5[nH]ncc45)nc(N4CCOCC4)c3s2)CC1 [pictilisib]
Summed up: as §1

Compound in the next test: CN1CCN(c2nc(C3=C(c4c[nH]c5ccccc45)C(=O)NC3=O)c3ccccc3n2)CC1 [sotrastaurin]
The procedure, abridged: as §1

Compound in a further test: CNC(=O)c1ccc(Nc2ncc(C(F)(F)F)c(NCc3nccnc3N(C)S(C)(=O)=O)n2)cc1 [defactinib]
The procedure, abridged:
as §1

Compound in test [5]: COC(=O)[C@H](CCSC)NC(=O)C1=C(C=C(C=C1)NC[C@H](CS)N)C2=CC=CC=C2
The procedure, abridged: as §1

Compound in another test: CON(C)C(=O)N1N=C(c2cc(F)ccc2F)S[C@@]1(CCCN)c1ccccc1 [filanesib]
The procedure, abridged:
as §1

Compound in a further test: COc1cc(Nc2ncc3c(n2)-c2ccc(Cl)cc2C(c2c(F)cccc2OC)=NC3)ccc1C(=O)O [alisertib]
The procedure, abridged: as §1

Compound in a further test: COc1cc2ncnc(Nc3ccc(F)c(Cl)c3)c2cc1OCCCN1CCOCC1 [gefitinib]
The procedure, abridged: as §1

Compound in test [6]: COc1cccc2cc(-c3nc([C@H]4CC[C@H](C(=O)O)CC4)n4ncnc(N)c34)[nH]c12
Summed up:
as §1

Compound in the next test: CNCc1ccc(-c2[nH]c3cc(F)cc4c3c2CCNC4=O)cc1 [rucaparib]
Summed up: as §1

Compound in another test: COC(=O)N[C@@H](C)CNc1nccc(-c2cn(C(C)C)nc2-c2cc(Cl)cc(NS(C)(=O)=O)c2F)n1 [encorafenib]
Summed up: as §1

In the case of SEC22A (UniProt Q96IW7), the log2 fold change with saracatinib was inactive: 0.032; with alvocidib, inactive: 0.038; with Tubastatin A it was inactive: 0.088; in test [1] it was inactive: -0.085; in test [2], inactive: 0.078; in test [3], inactive: 0.179. Moreover, the log2 fold change with zotarolimus is inactive: -0.085; with idasanutlin, inactive: -0.121; in test [4], inactive: 0.076; with lapatinib, inactive: 0.058; in the test with pictilisib, inactive: 0.116.
On to SCLT1 (UniProt Q96NL6), for which the log2 fold change was inactive: 0.073 in the test with saracatinib; inactive: -0.095 in the test with sotrastaurin; inactive: 0.116 with Tubastatin A; inactive: -0.047 in the test with defactinib; inactive: 0.121 in [2]; inactive: -0.087 in [5]. Besides, the log2 fold change in [3] was active: 0.433; with filanesib, inactive: -0.063; with zotarolimus, inactive: 0.079; in the test with alisertib, inactive: -0.205; with gefitinib, inactive: -0.022; in [6] it was inactive: 0.046. Moreover, the log2 fold change with pictilisib is inactive: 0.185.
With SCAMP2 (UniProt O15127), the log2 fold change in the test with saracatinib is inactive: 0.084; with sotrastaurin, inactive: 0.096; with Tubastatin A, inactive: 0.019; in test [1] it was inactive: 0.027; with defactinib, inactive: -0.086; in the test with rucaparib, inactive: -0.321. The log2 fold change is inactive: 0.028 in [2]; inactive: 0.349 in the test with encorafenib; inactive: 0.101 in [5]; inactive: 0.036 with filanesib; inactive: 0.171 with zotarolimus; inactive: -0.1 in the test with idasanutlin. Besides, the log2 fold change was inactive: -0.087 in the test with alisertib; inactive: -0.035 in [4]; inactive: 0.036 with gefitinib; inactive: 0.042 in test [6]; inactive: 0.009 with lapatinib; inactive: 0.199 with pictilisib.
Regarding SDCBP isoform 2 (UniProt O00560), the log2 fold change in the test with saracatinib is inactive: -0.175; with sotrastaurin, inactive: 0.042; with Tubastatin A, inactive: -0.301; in test [1], inactive: 0.115; with rucaparib it was inactive: -0.036; in test [2], active: -0.756. Moreover, the log2 fold change in the test with encorafenib was inactive: 0.032; in the test with filanesib, inactive: -0.08; in the test with alisertib, inactive: -0.236; in [4], inactive: 0.045; with gefitinib, inactive: -0.054; in test [6], inactive: 0.034. Further, the log2 fold change is inactive: -0.04 in the test with lapatinib and inactive: 0.228 with pictilisib.
